No constants are given. Whether binding was seen depends on the method and setting. In cells and extracts the contact can be indirect. Some entries that bind do so weakly or less than the wild type.
Molecular target: Argonaute 2 (mouse (endogenous in NSC-34)) (UniProt Q8CJG0)
Test: co-IP

By UniProt entry, the sequences of proteins in these tests, tags left out.
UniProt Q8CJG0: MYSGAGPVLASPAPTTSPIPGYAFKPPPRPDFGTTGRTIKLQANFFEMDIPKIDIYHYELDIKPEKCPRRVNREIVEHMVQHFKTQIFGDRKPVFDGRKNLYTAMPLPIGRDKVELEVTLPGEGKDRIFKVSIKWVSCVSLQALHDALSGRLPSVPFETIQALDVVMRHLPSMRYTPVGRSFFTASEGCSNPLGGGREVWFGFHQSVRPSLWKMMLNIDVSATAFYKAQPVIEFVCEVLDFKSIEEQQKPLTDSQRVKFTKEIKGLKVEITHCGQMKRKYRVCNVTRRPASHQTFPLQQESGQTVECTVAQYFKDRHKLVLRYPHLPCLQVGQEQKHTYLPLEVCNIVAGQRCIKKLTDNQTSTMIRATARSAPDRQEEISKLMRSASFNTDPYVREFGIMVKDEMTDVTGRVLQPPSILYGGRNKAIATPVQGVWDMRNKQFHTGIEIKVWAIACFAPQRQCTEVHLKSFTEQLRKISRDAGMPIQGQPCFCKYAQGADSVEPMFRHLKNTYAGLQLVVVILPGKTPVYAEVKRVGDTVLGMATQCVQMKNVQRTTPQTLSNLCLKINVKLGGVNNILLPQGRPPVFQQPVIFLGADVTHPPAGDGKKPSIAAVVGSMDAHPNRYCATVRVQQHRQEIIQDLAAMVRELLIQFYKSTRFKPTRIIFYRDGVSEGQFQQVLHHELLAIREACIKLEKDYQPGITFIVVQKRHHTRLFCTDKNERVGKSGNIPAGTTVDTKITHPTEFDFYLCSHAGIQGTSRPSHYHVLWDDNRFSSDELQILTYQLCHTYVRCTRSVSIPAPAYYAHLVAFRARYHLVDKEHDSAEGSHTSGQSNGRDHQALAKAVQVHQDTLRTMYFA
UniProt O88569: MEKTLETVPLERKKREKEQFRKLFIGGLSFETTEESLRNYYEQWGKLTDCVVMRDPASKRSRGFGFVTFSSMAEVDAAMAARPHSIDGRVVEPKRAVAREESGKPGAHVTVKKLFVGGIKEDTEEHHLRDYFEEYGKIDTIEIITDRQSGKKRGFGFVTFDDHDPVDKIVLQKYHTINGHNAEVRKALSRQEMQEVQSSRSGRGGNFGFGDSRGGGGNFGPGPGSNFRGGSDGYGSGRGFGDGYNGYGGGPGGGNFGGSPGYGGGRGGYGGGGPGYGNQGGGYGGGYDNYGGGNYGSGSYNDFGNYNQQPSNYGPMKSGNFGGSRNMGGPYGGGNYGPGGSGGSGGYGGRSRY

HNRNPA2B1 (from UniProt O88569 1-353)
binding: binds

Reference: paper doi:10.1101/2020.12.15.422806
